Test results from PubChem BioAssay AID248 (DTP/NCI, 2004).
The list is a part of this screen's results and no random one: it is rich in T/C values a quarter to a half above the control, in often repeated tests (any T/C) and in doses without a T/C. Further doses and runs are listed elsewhere. T/C gives the treated animals as a percentage of the vehicle group. Some doses have a count of surviving animals in place of a T/C: the source files T/C as zero there, which appears to mark a toxic dose or a test without result, not a measured value. Some survivor counts are full or nearly so, which does not show that the dose was tolerated: survival well below the control is almost never listed, so the zero probably covers shortened survival too. Survivors were counted at the toxicity check, usually on the fifth day, unless a day is given; later deaths do not show. Schedule codes are those of the source, read here as Q, the interval in days (D) or hours (H), X, the number of doses. Some entries hold several experiments; their values stand side by side, smallest first. Some schedule codes hold Z or #, which are not explained here. Some molecules as drawn cover several salts, stereoisomers or complexes of the source; a dose is that of the sample tested. Where survival is the endpoint, the PubChem record calls one and a half times the control and up active, and a quarter to a half above the control has no call in these data; cut-offs in other NCI protocols can differ. Some T/C values are followed by the survivors on the day toxicity was checked, most often the fifth; without a count, all were alive then. Brackets with × count equal records among those shown.

Tested on: L1210 leukemia ip in BDF1 mice, survival T/C
Experiment: NCI In Vivo Anticancer Drug Screen. Data for tumor model L1210 Leukemia (intraperitoneal) in B6D2F1 (BDF1) mice
Conditions: T/C endpoint: mean survival time, higher T/C = longer survival
[1] = dose: 400.0 mg/kg/injection, schedule: Q01DX001 (ip), vehicle: saline
[2] = dose: 400.0 mg/kg/injection, schedule: Q04DX003 (ip), vehicle: saline
[3] = dose: 400.0 mg/kg/injection, schedule: Q01DX009 (ip), vehicle: saline with Tween-80
[4] = dose: 400.0 mg/kg/injection, schedule: Q04DX003 (ip), vehicle: saline with Tween-80
[5] = dose: 400.0 mg/kg/injection, schedule: Q04DX002 (ip), vehicle: Klucel (hydroxypropylcellulose) (HPC)
[6] = dose: 300.0 mg/kg/injection, schedule: Q01DX001 (ip), vehicle: carboxymethylcellulose (CMC)
[7] = dose: 5.0 mg/kg/injection, schedule: Q01DX Z (ip), vehicle: methylcellulose (MC)
[8] = dose: 25.0 mg/kg/injection, schedule: Q01DX009 (ip), vehicle: saline
[9] = dose: 400.0 mg/kg/injection, schedule: Q01DX001 (ip), vehicle: saline with Tween-80

Q: Which T/C (dose: 25.0 mg/kg/injection, schedule: Q01DX009 (ip), vehicle: saline with Tween-80) does the source give for `Nc1nc(N)c(-c2ccc(Cl)c(Cl)c2)c(/C=C/C=C/c2cccnc2)n1` here?
A: Its T/C is 126 % of control.

Q: Which survivor count [1] does the source give for `O=C(c1ccc([N+](=O)[O-])cc1)N1C2CCCCCCC21` (centres undefined) here?
A: Its survivor count is 6 of 6.

Q: Which results are given for `OCCN1CCN(CCCN2c3ccccc3CCc3ccccc32)CC1`?
A: survivor count (dose: 200.0 mg/kg/injection, schedule: Q04DX003 (ip), vehicle: saline): 3 of 6; survivor count (dose: 250.0 mg/kg/injection, schedule: Q04DX003 (ip), vehicle: saline): 0 of 6; survivor count [2]: 1 of 6

Q: `CN(C)C(=S)NN` was tested. Which survivor count (dose: 6.25 mg/kg/injection, schedule: Q01DX009 (ip), vehicle: saline with Tween-80) did it give?
A: The survivor count was 1 of 6.

Q: What about the survivor count (dose: 12.5 mg/kg/injection, schedule: Q04DX003 (ip), vehicle: saline with Tween-80) of the same compound?
A: The survivor count was 3 of 6.

Q: What about the survivor count (dose: 25.0 mg/kg/injection, schedule: Q04DX003 (ip), vehicle: saline with Tween-80) of the same compound?
A: The survivor count was 0 of 6.

Q: And the survivor count (dose: 50.0 mg/kg/injection, schedule: Q04DX003 (ip), vehicle: saline with Tween-80)?
A: Its survivor count is 0 of 6.

Q: For `[O-][n+]1c(Cl)cc(Cl)c2ccccc21`, which survivor count (dose: 200.0 mg/kg/injection, schedule: Q01DX009 (ip), vehicle: saline with Tween-80) is on record?
A: The survivor count was 3 of 6.

Q: And the survivor count [3]?
A: The survivor count was 0 of 6.

Q: How did the survivor count (dose: 150.0 mg/kg/injection, schedule: Q04DX002 (ip), vehicle: gum acacia) turn out when `COC(=O)C#CCCC#CC(C)=O` was run?
A: The survivor count was 0 of 3.

Q: What about the survivor count (dose: 300.0 mg/kg/injection, schedule: Q04DX002 (ip), vehicle: gum acacia) of the same compound?
A: Its survivor count is 0 of 3.

Q: Which survivor count (dose: 100.0 mg/kg/injection, schedule: Q01DX001 (ip), vehicle: gum acacia) does the source give for `CCCCc1ccc(Nc2cc(=O)[nH]c(=O)[nH]2)cc1` here?
A: The survivor count was 6 of 6.

Q: How did the survivor count [4] turn out when `CCCCCCCC/C=C\CCCCCCCCOC(N)=O` was run?
A: The survivor count was 6 of 6.

Q: With `Cn1[nH]c(=O)c2ncccc2c1=O` as the compound, how does the T/C [5] read?
A: Its T/C is 126 % of control [2 of 3 alive].

Q: And the survivor count (dose: 800.0 mg/kg/injection, schedule: Q04DX002 (ip), vehicle: saline)?
A: Its survivor count is 1 of 3.

Q: `CC(C)(Cl)CCl` was tested. Which survivor count [3] did it give?
A: Its survivor count is 0 of 6.

Q: And the survivor count [4]?
A: The survivor count was 5 of 6.

Q: Which survivor count (dose: 340.0 mg/kg/injection, schedule: Q01DX015 (ip), vehicle: saline) does the source give for `CC1CCC2(CC1)CCN(CCCN(C)C)CC2` here?
A: The survivor count was 0 of 6.

Q: How did the survivor count (dose: 400.0 mg/kg/injection, schedule: Q01DX009 (ip), vehicle: carboxymethylcellulose (CMC)) turn out when `CCCCCCCCCCCCCCCC(=O)N(CCC)CCC` was run?
A: The survivor count was 2 of 3 and 6 of 6.

Q: How did the survivor count [2] turn out when `CCCC1(CCC)CN(C)C1=O` was run?
A: Its survivor count is 1 of 4.

Q: `CN(C)CCC1(c2ccccc2)CCN(C)C1=O` (centres undefined) was tested. Which survivor count [6] did it give?
A: The survivor count was 3 of 6.

Q: Which survivor count (dose: 400.0 mg/kg/injection, schedule: Q01DX009 (ip), vehicle: saline) does the source give for `COc1ccc(C(C#N)CC(=O)c2ccc(OC)c(OCc3ccccc3)c2)cc1OC` (centres undefined) here?
A: The survivor count was 2 of 6.

Q: Which results are given for `O=C(Nc1ccc(C2=NCCN2)cc1)c1ccc(C(=O)Nc2ccc(C3=NCCN3)cc2)c(NC(=O)c2ccc(C(=O)Nc3cc(C(=O)Nc4ccc(C5=NCCN5)cc4)ccc3C(=O)Nc3ccc(C4=NCCN4)cc3)cc2)c1`?
A: survivor count (dose: 2.5 mg/kg/injection, schedule: Q01DX Z (ip), vehicle: methylcellulose (MC)): 0 of 6; T/C [7]: 127 % of control; survivor count [7]: 0 of 6; survivor count (dose: 10.0 mg/kg/injection, schedule: Q01DX Z (ip), vehicle: methylcellulose (MC)): 0 of 6; T/C (dose: 15.0 mg/kg/injection, schedule: Q01DX Z (ip), vehicle: methylcellulose (MC)): 128 % of control; T/C [8]: 90, 94, 104 [5 of 6 alive], 110 % of control; T/C (dose: 30.0 mg/kg/injection, schedule: Q01DX Z (ip), vehicle: methylcellulose (MC)): 135 % of control; T/C (dose: 37.5 mg/kg/injection, schedule: Q03DX Z (ip), vehicle: carboxymethylcellulose (CMC)): 127 % of control; T/C (dose: 50.0 mg/kg/injection, schedule: Q01DX009 (ip), vehicle: saline): 89, 93, 103, 112 % of control; survivor count (dose: 60.0 mg/kg/injection, schedule: Q01DX Z (ip), vehicle: methylcellulose (MC)): 0 of 6; T/C (dose: 75.0 mg/kg/injection, schedule: Q01DX015 (ip), vehicle: carboxymethylcellulose (CMC)): 125 % of control; T/C (dose: 87.5 mg/kg/injection, schedule: Q07DX Z (ip), vehicle: carboxymethylcellulose (CMC)): 130 % of control; T/C (dose: 100.0 mg/kg/injection, schedule: Q01DX009 (ip), vehicle: saline): 96 (2×), 130, 142 % of control; survivor count (dose: 120.0 mg/kg/injection, schedule: Q01DX Z (ip), vehicle: methylcellulose (MC)): 0 of 6; T/C (dose: 200.0 mg/kg/injection, schedule: Q01DX009 (ip), vehicle: saline): 96 [5 of 6 alive], 100, 155, 178 % of control; survivor count (dose: 240.0 mg/kg/injection, schedule: Q01DX Z (ip), vehicle: methylcellulose (MC)): 0 of 6; T/C (dose: 960.0 mg/kg/injection, schedule: Q01DX001 (ip), vehicle: other): 127 and 137 % of control; T/C (dose: 2160.0 mg/kg/injection, schedule: Q01DX001 (ip), vehicle: other): 136 % of control

Q: Which survivor count [3] does the source give for `CC(=O)OC1CCC(C)(C2CCC3(C)C(C(C)CCCC(C)C)CCC3C2CC(=O)O)C(=O)C1` (centres undefined) here?
A: Its survivor count is 6 of 6.

Q: For `CC1(c2cccc3ccccc23)OCC2(CCCCC2)CO1`, which survivor count (dose: 162.5 mg/kg/injection, schedule: Q01DX009 (ip), vehicle: DMSO) is on record?
A: Its survivor count is 5 of 6.

Q: And the survivor count (dose: 325.0 mg/kg/injection, schedule: Q01DX009 (ip), vehicle: DMSO)?
A: Its survivor count is 0 of 6.

Q: Which results are given for `O=[N+]([O-])c1ccc(-[n+]2nc(-c3ccccc3)nn2-c2ccc(I)cc2)cc1`?
A: survivor count (dose: 100.0 mg/kg/injection, schedule: Q01DX001 (ip), vehicle: carboxymethylcellulose (CMC)): 0 of 6; survivor count (dose: 128.0 mg/kg/injection, schedule: Q01DX015 (ip), vehicle: carboxymethylcellulose (CMC)): 0 of 6; survivor count (dose: 200.0 mg/kg/injection, schedule: Q01DX001 (ip), vehicle: carboxymethylcellulose (CMC)): 0 of 6; survivor count (dose: 400.0 mg/kg/injection, schedule: Q01DX001 (ip), vehicle: carboxymethylcellulose (CMC)): 0 of 6

Q: `c1ccc(-c2c(-c3ccc4c(c3)OCO4)c(-c3ccc4c(c3)OCO4)c(-c3ccccc3)c3ccccc23)cc1` was tested. Which survivor count [9] did it give?
A: Its survivor count is 3 of 3.

Q: What does the source list for `Nc1[nH]c(=O)ncc1-c1cccc(Cl)c1`?
A: survivor count (dose: 100.0 mg/kg/injection, schedule: Q01DX009 (ip), vehicle: Klucel (hydroxypropylcellulose) (HPC)): 0 of 3; survivor count (dose: 200.0 mg/kg/injection, schedule: Q01DX009 (ip), vehicle: Klucel (hydroxypropylcellulose) (HPC)): 0 of 3

Q: How did the survivor count [9] turn out when `CCCC(/C=N/Nc1ccc([N+](=O)[O-])cc1[N+](=O)[O-])=C\c1ccccc1` was run?
A: The survivor count was 6 of 6.

Q: `C[CH2][Sn]([CH2]C)([O]S(C)(=O)=O)[O]S(C)(=O)=O` was tested. Which survivor count [8] did it give?
A: Its survivor count is 2 of 6.

Q: `CC1CCOP(=O)(Sc2ccccc2)O1` (centres undefined) was tested. Which survivor count (dose: 300.0 mg/kg/injection, schedule: Q04DX002 (ip), vehicle: Klucel (hydroxypropylcellulose) (HPC)) did it give?
A: Its survivor count is 1 of 3.

Q: And the survivor count [5]?
A: The survivor count was 0 of 3.

Q: What does the source list for `NNc1nnc(-c2ccccc2)c2ccccc12`?
A: survivor count (dose: 75.0 mg/kg/injection, schedule: Q01DX001 (ip), vehicle: carboxymethylcellulose (CMC)): 1 of 6; survivor count (dose: 150.0 mg/kg/injection, schedule: Q01DX001 (ip), vehicle: carboxymethylcellulose (CMC)): 0 of 6; survivor count [6]: 0 of 6

Q: What does the source list for `O=C1OCCC1[P+](c1ccccc1)(c1ccccc1)c1ccccc1` (centres undefined)?
A: survivor count (dose: 200.0 mg/kg/injection, schedule: Q01DX001 (ip), vehicle: saline): 0 of 4; survivor count [1]: 0 of 4

Q: `Cc1ccc(C(=O)O)cc1-n1c(-c2ccc(Cl)cc2)nnc1-c1ccc(Br)cc1` was tested. Which survivor count (dose: 400.0 mg/kg/injection, schedule: Q01DX001 (ip), vehicle: Klucel (hydroxypropylcellulose) (HPC)) did it give?
A: Its survivor count is 1 of 6.

Q: For `CC1([N+](=O)[O-])COP(=O)(O)OC1` (centres undefined), which survivor count (dose: 100.0 mg/kg/injection, schedule: Q01DX001 (ip), vehicle: saline) is on record?
A: Its survivor count is 4 of 4.

Q: How did the survivor count (dose: 200.0 mg/kg/injection, schedule: Q01DX009 (ip), vehicle: water) turn out when `N=C(N)c1ccc(C(=N)N)cc1` was run?
A: Its survivor count is 0 of 6.
